Patent US8933235B2, “Pyridinedione carboxamide inhibitors of endothelial lipase” (Bristol-Myers Squibb Company, priority 2011, dated 2015)
Some results were stated once for a whole list of compounds, not compound by compound.

These compounds were tested against T1, endothelial lipase (EL) (Homo sapiens, UniProt Q9Y5X9) (assay: Endothelial lipase (EL) enzymatic assay with fluorescent substrate A10070 in DMPG vesicles). Conditions: result in words.
T1 construct: Conditioned media obtained from HT-1080 cells, which were transformed by RAGE technology (Athersys) to overexpress endogenous EL; endogenous in cells; conditioned medium used as the enzyme source
T1 sequence (Q9Y5X9 21-500): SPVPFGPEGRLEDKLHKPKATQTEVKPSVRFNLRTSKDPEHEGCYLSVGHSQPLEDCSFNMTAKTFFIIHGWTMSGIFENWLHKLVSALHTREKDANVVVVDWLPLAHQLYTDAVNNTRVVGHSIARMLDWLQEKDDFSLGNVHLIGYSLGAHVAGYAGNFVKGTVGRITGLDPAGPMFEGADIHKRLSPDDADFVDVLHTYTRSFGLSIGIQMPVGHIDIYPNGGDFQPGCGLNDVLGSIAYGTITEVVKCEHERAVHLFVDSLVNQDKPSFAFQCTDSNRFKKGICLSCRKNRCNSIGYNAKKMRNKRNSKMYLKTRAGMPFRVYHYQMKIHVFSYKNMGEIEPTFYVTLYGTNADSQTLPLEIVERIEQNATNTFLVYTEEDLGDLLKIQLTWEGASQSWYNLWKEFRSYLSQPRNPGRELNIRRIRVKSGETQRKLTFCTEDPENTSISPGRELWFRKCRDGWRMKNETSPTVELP
Type: biochemical
Method: Endothelial lipase activity was measured using a fluorescent substrate, A10070, (Invitrogen, CA) doped into an artificial vesicle containing DMPG (Avanti Polar Lipids) as the excipient. Vesicles were prepared by combining 285 uL of 1 mM DMPG in a 1:1 mixture of MeOH and CHCl3 with 15 uL of 1 mM A10070 in a 1:1 mixture of MeOH and CHCl3. The mixture was dried under nitrogen and resuspended in 150 uL of 50 mM HEPES pH 8.0 buffer containing 100 mM NaCl and 0.2 mM EDTA. The sample was allowed to sit at rt for 15 min and then was sonicated 3×4 mins on ice with a Branson Sonicator using duty cycle 1. This preparation provides vesicles with a mole fraction of 0.05 for the FRET substrate.
The enzymatic assay was measured using white, opaque 96-well half area plates. Each well contained 60 uL of assay buffer (50 mM HEPES pH 8.0, 50 mM NaCl and 1 mM CaCl2) and 2 ul of a DMSO solution containing compound of interest. Conditioned media obtained from HT-1080 cells, which were transformed by RAGE technology (Athersys) to overexpress endogenous EL, was added and the reaction was allowed to incubate for 20 min at 37° C. with gentle agitation. The reaction was started by the addition of 20 uL of a 1:4 dilution of vesicles. The final total reaction volume was 100 uL. The reaction rates were measured on a Gemini plate reader with an excitation wavelength of 488 nm and a emission of 530 nm. Readings were taken every 20 seconds for 10 min with agitation between each reading. The slope of the linear portion of the readout was used to calculate the rate of the reaction.

Row | SMILES | EL inhibitory activity
1 | Cn1ccc(C(=O)NCCc2ccc(Cl)c(Cl)c2)c(O)c1=O [Example 133, N-(3,4-dichlorophenethyl)-3-hydroxy-1-methyl-2-oxo-1,2-dihydropyridine-4-carboxamide] | found having EL inhibitory activity
2 | CCc1cc(C(=O)NCCCc2ccc(Cl)c(Cl)c2)c(O)c(=O)n1C [Example 102, N-(3-(3,4-dichlorophenyl)propyl)-6-ethyl-3-hydroxy-1-methyl-2-oxo-1,2-dihydropyridine-4-carboxamide] | found having EL inhibitory activity
3 | Cn1c(-c2cc(F)cc(C(F)(F)F)c2)cc(C(=O)NCCc2ccccc2)c(O)c1=O [Example 74, 6-(3-fluoro-5-(trifluoromethyl)phenyl)-3-hydroxy-1-methyl-2-oxo-N-phenethyl-1,2-dihydropyridine-4-carboxamide] | found having EL inhibitory activity
4 | Cn1ccc(C(=O)NCCCOc2ccc(Cl)cc2)c(O)c1=O [Example 203, N-(3-(4-chlorophenoxy)propyl)-3-hydroxy-1-methyl-2-oxo-1,2-dihydropyridine-4-carboxamide] | found having EL inhibitory activity
5 | O=C(NCCCc1ccc(Cl)c(Cl)c1)c1ccn(CC(F)(F)F)c(=O)c1O [Example 184, N-(3-(3,4-dichlorophenyl)propyl)-3-hydroxy-2-oxo-1-(2,2,2-trifluoroethyl)-1,2-dihydropyridine-4-carboxamide] | found having EL inhibitory activity
6 | Cn1ccc(C(=O)NCCCOc2ccc3ccccc3c2)c(O)c1=O [Example 147, 3-hydroxy-1-methyl-N-(3-(naphthalen-2-yloxy)propyl)-2-oxo-1,2-dihydropyridine-4-carboxamide] | found having EL inhibitory activity
7 | COc1cccc(OCCCNC(=O)c2cc(C(F)(F)F)n(C)c(=O)c2O)c1 [Example 86, 3-hydroxy-N-(3-(3-methoxyphenoxy)propyl)-1-methyl-2-oxo-6-(trifluoromethyl)-1,2-dihydropyridine-4-carboxamide] | found having EL inhibitory activity
8 | Cn1ccc(C(=O)NCc2ccc(C(F)(F)F)cc2)c(O)c1=O [Example 129, 3-hydroxy-1-methyl-2-oxo-N-(4-(trifluoromethyl)benzyl)-1,2-dihydropyridine-4-carboxamide] | found having EL inhibitory activity
9 | Cc1ccccc1OCCCNC(=O)c1cc(C(F)(F)F)n(C)c(=O)c1O [Example 97, 3-hydroxy-1-methyl-2-oxo-N-(3-(o-tolyloxy)propyl)-6-(trifluoromethyl)-1,2-dihydropyridine-4-carboxamide] | found having EL inhibitory activity
10 | Cn1c(-c2cccc(Cl)c2)cc(C(=O)NCCCc2ccc(Cl)c(Cl)c2)c(O)c1=O [Example 16, 6-(3-chlorophenyl)-N-(3-(3,4-dichlorophenyl)propyl)-3-hydroxy-1-methyl-2-oxo-1,2-dihydropyridine-4-carboxamide] | found having EL inhibitory activity
11 | Cn1c(-c2cc(F)cc(C(F)(F)F)c2)cc(C(=O)NCCC2C(=O)Nc3ccccc32)c(O)c1=O (centres unmarked) [Example 50, 6-(3-fluoro-5-(trifluoromethyl)phenyl)-3-hydroxy-1-methyl-2-oxo-N-(2-(2-oxoindolin-3-yl)ethyl)-1,2-dihydropyridine-4-carboxamide] | found having EL inhibitory activity
12 | COC(=O)c1cccc(OCCCNC(=O)c2cc(-c3cc(F)cc(C(F)(F)F)c3)n(C)c(=O)c2O)c1 [Example 71, methyl 3-(3-(6-(3-fluoro-5-(trifluoromethyl)phenyl)-3-hydroxy-1-methyl-2-oxo-1,2-dihydropyridine-4-carboxamido)propoxy)benzoate] | found having EL inhibitory activity
13 | CC(C)CNc1c(C(=O)NCCCc2ccc(Cl)c(Cl)c2)ccn(C)c1=O [Example 188, N-(3-(3,4-dichlorophenyl)propyl)-3-(isobutylamino)-1-methyl-2-oxo-1,2-dihydropyridine-4-carboxamide] | found having EL inhibitory activity
14 | Cn1c(-c2cccs2)cc(C(=O)NCCCc2ccc(Cl)c(Cl)c2)c(O)c1=O [Example 14, N-(3-(3,4-dichlorophenyl)propyl)-3-hydroxy-1-methyl-2-oxo-6-(thiophen-2-yl)-1,2-dihydropyridine-4-carboxamide] | found having EL inhibitory activity
15 | COc1cccc(OCCCNC(=O)c2ccn(C)c(=O)c2O)c1 [Example 197, 3-hydroxy-N-(3-(3-methoxyphenoxy)propyl)-1-methyl-2-oxo-1,2-dihydropyridine-4-carboxamide] | found having EL inhibitory activity
16 | Cn1ccc(C(=O)NCCCc2ccc(Cl)c(Cl)c2)c(NCCc2cccc(F)c2)c1=O [Example 190, N-(3-(3,4-dichlorophenyl)propyl)-3-(3-fluorophenethylamino)-1-methyl-2-oxo-1,2-dihydropyridine-4-carboxamide] | found having EL inhibitory activity
17 | Cc1ccc(OCCCNC(=O)c2ccn(C)c(=O)c2O)cc1 [Example 196, 3-hydroxy-1-methyl-2-oxo-N-(3-(p-tolyloxy)propyl)-1,2-dihydropyridine-4-carboxamide] | found having EL inhibitory activity
18 | Cn1ccc(C(=O)NCCCSc2ccc(Cl)c(Cl)c2)c(O)c1=O [Example 158, N-(3-(3,4-dichlorophenylthio)propyl)-3-hydroxy-1-methyl-2-oxo-1,2-dihydropyridine-4-carboxamide] | found having EL inhibitory activity
19 | Cn1c(-c2cc(F)cc(C(F)(F)F)c2)cc(C(=O)NCc2ccc(OC(F)(F)F)cc2)c(O)c1=O [Example 67, 6-(3-fluoro-5-(trifluoromethyl)phenyl)-3-hydroxy-1-methyl-2-oxo-N-(4-(trifluoromethoxy)benzyl)-1,2-dihydropyridine-4-carboxamide] | found having EL inhibitory activity
20 | COC(=O)c1ccc(OCCCNC(=O)c2cc(-c3cc(F)cc(C(F)(F)F)c3)n(C)c(=O)c2O)cc1 [Example 72, methyl 4-(3-(6-(3-fluoro-5-(trifluoromethyl)phenyl)-3-hydroxy-1-methyl-2-oxo-1,2-dihydropyridine-4-carboxamido)propoxy)benzoate] | found having EL inhibitory activity
21 | Cn1ccc(C(=O)NCCCOc2ccccc2Cl)c(O)c1=O [Example 143, N-(3-(2-chlorophenoxy)propyl)-3-hydroxy-1-methyl-2-oxo-1,2-dihydropyridine-4-carboxamide] | found having EL inhibitory activity
22 | Cn1c(-c2cccc(OC(F)(F)F)c2)cc(C(=O)NCCCc2ccc(Cl)c(Cl)c2)c(O)c1=O [Example 24, N-(3-(3,4-dichlorophenyl)propyl)-3-hydroxy-1-methyl-2-oxo-6-(3-(trifluoromethoxy)phenyl)-1,2-dihydropyridine-4-carboxamide] | found having EL inhibitory activity
23 | Cn1c(-c2ccc(S(C)(=O)=O)cc2)cc(C(=O)NCCCc2ccc(Cl)c(Cl)c2)c(O)c1=O [Example 27, N-(3-(3,4-dichlorophenyl)propyl)-3-hydroxy-1-methyl-6-(4-(methylsulfonyl)phenyl)-2-oxo-1,2-dihydropyridine-4-carboxamide] | found having EL inhibitory activity
